# Literature values as cited in patent US8541471B2, “Water-soluble strontium salts for use in treatment of cartilage and/or bone conditions” (Osteologix A/S, priority 2003, dated 2013).
# Some of these results come from one statement about several compounds together. For at least one compound, name, drawing or mass did not settle the structure.
# Conditions: cited from earlier work
compound,measurement,value
"[Cl-].[Cl-].[Sr+2] [Chloride, strontium chloride, reference compound]",solubility in water of highly soluble known strontium salts,225 to 800 mg/mL
